Measurements: PubChem BioAssay AID2685 (National Center for Advancing Translational Sciences (NCATS), 2010)
The other results are listed elsewhere or left out. Further columns of the screen follow, without active or inactive calls. Most of these compounds were active or inconclusive in the main read-out, so they are no random draw. Potencies come from curve fits of mixed quality, noted in brackets.

Assay: qHTS Assay for Lipid Storage Modulators in Drosophila S3 Cells;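 as to cell number change: cells counted by Cell Tracker Red CMTPX staining in the red channel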
Settings: BODIPY lipid droplet fluorescence, 18-24 h; for cell number change: measured here: cell count max response, cells fed with added oleic acid
How it was run: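 Drosophila S3 cells got compounds at several concentrations plus oleic acid (400 uM solution). Laser-scanning cytometry with 488 nm excitation read lipid droplets at 500-530 nm and cells at 575-640 nm. Percent activity was relative to 20 uM Triacsin C.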

[1] = measured here: cell number channel AC50, cells fed with added oleic acid
[2] = measured here: lipid fluorescence (Fed channel) AC50, cells fed with added oleic acid

SMILES | cell number change | AC50 [1] | AC50 [2]
CCOc1c(Br)cc(/C=C2\C(=O)N(CCC#N)N=C2C)cc1OC | -31.3% | 13 µM [falling, single point] | –
N#Cc1ccsc1NC(=O)CN1CCCCCC1 | -3.43% | – | 5.8 µM [rising, full curve]
CC(C)Oc1cccc(C(=O)NC(=S)Nc2cccc(NC(=O)c3ccccc3Cl)c2)c1 | 10.8% | 0.651 µM [falling, partial curve, poor fit] | 1.16 µM [falling, single point]
CCCN1C(=O)/C(=C2/C=Cc3ccccc3N2CC)SC1=S | -32% | 29.1 µM [falling, single point] | 0.231 µM [falling, full curve]
CCNc1nc(SC(C(C)=O)C(C)=O)nc(N(C)C)n1 | 123% | – | 29.1 µM [rising, single point]
O=c1[nH]c(=S)[nH]c2c1C(c1ccc(Br)cc1)c1c([nH]c(=S)[nH]c1=O)O2 | 2.7% | – | 29.1 µM [falling, single point]
Cc1ccc(S(=O)(=O)CC(C)N2CCOCC2)c(S(=O)(=O)CC(C)N2CCOCC2)c1 (stereo not drawn) | 11.5% | – | –
CCN(c1ccccc1)S(=O)(=O)c1ccc(C(=O)NNC(=O)c2ccccc2F)cc1 | -4.41% | – | 29.1 µM [falling, single point]
CN1C(C(=O)N2CCc3ccccc3C2)=CC(c2ccc(F)cc2)=NS1(=O)=O | 13.4% | – | –
CCN(CC)S(=O)(=O)c1cc(NC(=O)COC(=O)CCc2nc3ccccc3s2)ccc1C | 70.1% | 18.4 µM [rising, single point] | –
CCOC(=O)c1c(C)nc2c(C)cccn12 | – | – | 3.66 µM [rising, single point]
CC(C)Cc1cc(C(=O)Nc2ccc(F)cc2F)no1 | – | – | 25.9 µM [falling, single point]
c1cc(-n2cnnn2)ccc1NC1=NCCC1 | -13.6% | – | 29.1 µM [falling, single point]
CCOC(=O)C(=Cc1cc(=O)c(OC)co1)C(=O)OCC | -80.4% | 18.4 µM [falling, partial curve] | 5.8 µM [falling, partial curve]
CN(C(=S)NC(=O)CCCOc1ccc(Cl)cc1Cl)c1ccccc1 | – | – | 6.51 µM [falling, single point]
CC(C)(C)C(=O)Nc1cc(S(=O)(=O)Nc2ccc(Cl)cc2)ccc1Cl | -59.7% | 29.1 µM [falling, single point] | 29.1 µM [falling, single point]
COc1ccc(COCC(O)CN2CCCCC2)cc1OC (stereo not drawn) | 19.9% | 0.58 µM [rising, full curve, poor fit] | –
CC(C)C(=O)Nc1sc2c(c1-c1nc3ccccc3[nH]1)CCCC2 | – | 0.146 µM [rising, full curve, poor fit] | –
CCOC(=O)N1CCN(C(=O)c2ccc(NC(=O)CC)cc2)CC1 | – | – | 29.1 µM [rising, single point]
Cc1ccc(SCCCCN2CCNCC2)cc1 | 5.8% | – | –
CN(C)C(=O)CSc1ccc(S(=O)(=O)N2CCCC2)cn1 | 2.24% | – | 0.411 µM [rising, full curve]

SMILES | cell number change | AC50 [1] | AC50 [2]
Cc1ccc(Cl)c(NC(=O)CN2CCNC(=O)C2)c1Cl | -40.2% | – | 10.3 µM [falling, single point]
CC1CN(C(=O)CCC(=O)NCc2ccccc2Cl)c2ccccc2S1 (stereo not drawn) | 19.3% | – | –
O=C(Nc1ccc(Oc2ccc(Br)cc2)cc1)C1=CC=CN2CCS(=O)(=O)N=C12 | -10.8% | – | 2.59 µM [rising, partial curve, poor fit]
CCOc1ccc(Br)cc1S(=O)(=O)Nc1ccc(C(=O)OCC(=O)Nc2ccc(C#N)cc2)cc1 | 2.55% | – | 0.206 µM [falling, full curve, poor fit]
COc1ccc(C(=O)/C=C\c2ccc(NC(=O)c3cccs3)cc2)cc1 | -13.4% | – | 20.6 µM [falling, single point]
CN(C)C1(CNC(=O)C2CCC(=O)N(Cc3ccc(Cl)cc3)C2)CCCCC1 (stereo not drawn) | – | – | 6.51 µM [falling, single point]
Cc1ccc(N2CC(C)Cn3c2nc2c3c(=O)[nH]c(=O)n2C)cc1C (stereo not drawn) | -8.33% | – | 6.51 µM [falling, single point]
Cn1nc(N2CCN(S(=O)(=O)c3ccccc3)CC2)c(=O)n(C)c1=O | -12.2% | – | 0.291 µM [falling, full curve, poor fit]
Cc1ccc(-c2n[nH]c(=O)c3ccccc23)cc1S(=O)(=O)NCCO | 2.88% | – | 23.1 µM [rising, partial curve]
CSc1nc(Cl)c(Cc2ccc(OC(C)C)cc2)c(N2CCOCC2)n1 | -9.96% | – | –
Cc1nn(C)cc1S(=O)(=O)Nc1ccccc1Br | 11.6% | – | 29.1 µM [rising, partial curve, poor fit]
N#Cc1c(NC(=O)C2C3C=CC(C3)C2C(=O)O)sc2c1CCCCC2 (stereo not drawn) | -10.5% | – | 0.0231 µM [falling, full curve, poor fit]
CCOC(=O)c1[nH]c(C)c(C(=O)Nc2ccc(C)c(F)c2)c1C | – | 1.46 µM [rising, partial curve] | 0.366 µM [rising, full curve]
Cc1ccc(NC(=O)CSc2nc3[nH]ncc3c(=O)[nH]2)c(C)c1 | 4.98% | – | –
O=C1CN(C(=O)COC(=O)C2CCN(S(=O)(=O)c3ccccc3C(F)(F)F)CC2)c2ccccc2N1 | 46% | 29.1 µM [rising, single point] | –
COc1ccc(N2CCN(C(=O)c3oc4ccccc4c3C)CC2)cc1 | -10.3% | – | 0.13 µM [rising, full curve, poor fit]
CC(=O)Nc1nc2c(s1)C(=O)NCCC2 | -49.2% | 29.1 µM [falling, single point] | 13 µM [falling, partial curve]
COc1ccccc1-c1nnc(SCC(=O)OC(C)C)o1 | -42.8% | 0.82 µM [falling, full curve, poor fit] | –
O=C1CC(Sc2ccc(Cl)cc2)C(=O)N1Cc1ccncc1 (stereo not drawn) | 65.5% | 8.2 µM [rising, partial curve] | 0.731 µM [rising, single point]
Cc1cc(C)c2c(NC(=S)NC(=O)c3ccccc3)nn(C)c2n1 | 13.6% | 2.91 µM [rising, partial curve] | 6.51 µM [rising, partial curve]
O=C(CSc1nnnn1-c1ccc(Cl)cc1)Nc1cccnc1Cl | -11% | – | 10.3 µM [falling, partial curve]

SMILES | cell number change | AC50 [1] | AC50 [2]
Cc1cc(OCC(=O)Nc2ccncc2)ccc1Cl | -44.1% | 14.6 µM [falling, partial curve, poor fit] | 5.8 µM [falling, full curve, poor fit]
Cc1ccc(OCc2cccc(S(=O)(=O)N(C)C)c2)c([N+](=O)[O-])n1 | 29.5% | 0.164 µM [rising, full curve, poor fit] | –
O=C(c1ccccn1)N1CCN(C(=O)c2ccccn2)CC1 | -16% | – | 0.411 µM [falling, full curve, poor fit]
O=C(CSc1ccc(Cl)cc1)N1CCN(c2c(Cl)cccc2[N+](=O)[O-])CC1 | 42.1% | – | –
O=C(NC1CCCCC1)C(c1ccco1)N(C(=O)c1csnn1)c1ccc(Cl)cc1 (stereo not drawn) | 32.3% | – | 0.00461 µM [falling, full curve, poor fit]
Cc1ccc(F)cc1NC(=O)CSc1nc(Nc2ccccc2)nc(N2CCOCC2)n1 | 16.2% | – | 29.1 µM [rising, single point]
Clc1ccc(Cn2cnc3ccccc32)cc1 | -32.9% | 0.146 µM [falling, full curve] | 0.366 µM [falling, full curve]
CC(Cc1ccccc1)C(=O)N(C)Cc1ccccc1 (stereo not drawn) | -12.2% | – | 0.58 µM [falling, full curve, poor fit]
Cc1ccc2nc(Cl)c(/C=N/Nc3ccc(C(=O)O)cc3)cc2c1 | 5.36% | 4.11 µM [rising, single point] | 6.51 µM [rising, single point]
COc1ccc(C(=O)C(C)Oc2cccc(NC(=O)c3cccc([N+](=O)[O-])c3)c2)cc1 (stereo not drawn) | 36.3% | 0.82 µM [rising, full curve, poor fit] | 0.82 µM [rising, full curve, poor fit]
CCS(=O)(=O)c1ccc(O)c(NC(=O)COc2ccc(OC)cc2)c1 | -17.3% | – | 16.4 µM [rising, single point]
CCOC(=O)Cc1csc(NC(=O)NC2(C(F)(F)F)Oc3ccc(Cl)cc3O2)n1 (stereo not drawn) | 1.84% | – | –
O=C1CC(c2ccc(F)cc2)CC(O)=C1C=NCCN1CCN(C(=O)Nc2ccccc2)CC1 (stereo not drawn) | 2.08% | – | 6.51 µM [rising, single point]
O=C1CSC(c2cccnc2)N1c1ccc(F)cc1 (stereo not drawn) | 45.1% | 0.731 µM [rising, full curve] | –
Cc1noc(C)c1CSc1nc2ccccc2[nH]1 | – | – | 0.0517 µM [falling, full curve]
OC1(c2ccc(Cl)c(Cl)c2)C[n+]2ccccc2N1Cc1ccccc1 (stereo not drawn) | 0.234% | – | –
CCc1noc(C)c1C(=O)Nc1nc2c(F)cc(F)cc2s1 | -7.26% | – | 5.17 µM [rising, single point]
CCCOc1ccc([N+](=O)[O-])c(N)c1 | 33.3% | 23.1 µM [rising, single point] | –
COc1ccc(CC(=O)N(Cc2ccccc2)c2ccccc2)cc1S(=O)(=O)N1CCOCC1 | 41.5% | 31.6 µM [rising, single point] | 3.98 µM [rising, partial curve, poor fit]

Ordered by SMILES length (ascending): part of the list above
SMILES | cell number change | AC50 [1] | AC50 [2]
COc1ccccc1-c1nnc(SCC(=O)OC(C)C)o1 | -42.8% | 0.82 µM [falling, full curve, poor fit] | –
OC1(c2ccc(Cl)c(Cl)c2)C[n+]2ccccc2N1Cc1ccccc1 (stereo not drawn) | 0.234% | – | –
Cc1ccc(N2CC(C)Cn3c2nc2c3c(=O)[nH]c(=O)n2C)cc1C (stereo not drawn) | -8.33% | – | 6.51 µM [falling, single point]
O=c1[nH]c(=S)[nH]c2c1C(c1ccc(Br)cc1)c1c([nH]c(=S)[nH]c1=O)O2 | 2.7% | – | 29.1 µM [falling, single point]
